From PubChem BioAssay AID248 (DTP/NCI, 2004)
The list is a part of this screen's results and no random one: it gathers tests that were run many times, whatever their T/C, doses with no T/C, and many T/C values between a quarter and a half above the control. Further doses and runs are listed elsewhere. T/C is the treated group as % of the vehicle group. Some doses have a count of surviving animals in place of a T/C: the source files T/C as zero there, which appears to mark a toxic dose or a test without result, not a measured value. Some survivor counts are full or nearly so, which does not show that the dose was tolerated: survival well below the control is almost never listed, so the zero probably covers shortened survival too. Counts of survivors are from the toxicity check (mostly the fifth day) where no day follows; animals may have died later. Schedules are NCI's codes, read here as Q, the interval in days (D) or hours (H), X, the number of doses. Some entries were tested several times; the results are listed from low to high. Some molecules as drawn cover several salts, stereoisomers or complexes of the source; a dose is that of the sample tested. Where survival is the endpoint, this PubChem deposit counts one and a half times the control or more as active, and values a quarter to a half above the control carry no call in these data; other NCI protocols may use other cut-offs. Marks such as (2×) say how often a value occurs here. Some T/C values carry the count of animals alive at the toxicity check (mostly the fifth day); where none is given, no animal had died by that day.

Tested on: L1210 leukemia ip in BDF1 mice, survival T/C
Assay: NCI In Vivo Anticancer Drug Screen. Data for tumor model L1210 Leukemia (intraperitoneal) in B6D2F1 (BDF1) mice
Conditions: T/C endpoint: mean survival time, higher T/C = longer survival
[1] = dose: 200.0 mg/kg/injection, schedule: Q04DX003 (ip), vehicle: saline
[2] = dose: 400.0 mg/kg/injection, schedule: Q04DX003 (ip), vehicle: saline
[3] = dose: 400.0 mg/kg/injection, schedule: Q01DX001 (ip), vehicle: carboxymethylcellulose (CMC)
[4] = dose: 400.0 mg/kg/injection, schedule: Q01DX009 (ip), vehicle: saline with Tween-80
[5] = dose: 100.0 mg/kg/injection, schedule: Q01DX001 (ip), vehicle: carboxymethylcellulose (CMC)
[6] = dose: 100.0 mg/kg/injection, schedule: Q04DX002 (ip), vehicle: carboxymethylcellulose (CMC)
[7] = dose: 100.0 mg/kg/injection, schedule: Q04DX003 (ip), vehicle: saline with Tween-80
[8] = dose: 200.0 mg/kg/injection, schedule: Q04DX003 (ip), vehicle: saline with Tween-80
[9] = dose: 400.0 mg/kg/injection, schedule: Q04DX003 (ip), vehicle: saline with Tween-80
[10] = dose: 12.5 mg/kg/injection, schedule: Q01DX009 (ip), vehicle: saline with Tween-80
[11] = dose: 200.0 mg/kg/injection, schedule: Q04DX003 (ip), vehicle: Klucel (hydroxypropylcellulose) (HPC)
[12] = dose: 400.0 mg/kg/injection, schedule: Q04DX003 (ip), vehicle: Klucel (hydroxypropylcellulose) (HPC)
[13] = dose: 200.0 mg/kg/injection, schedule: Q01DX009 (ip), vehicle: Klucel (hydroxypropylcellulose) (HPC)

Structure (SMILES): CCC/C=N/Nc1ccnc(SC)n1
- survivor count (dose: 200.0 mg/kg/injection, schedule: Q01DX009 (ip), vehicle: gum acacia): 6 of 6
- survivor count (dose: 400.0 mg/kg/injection, schedule: Q01DX009 (ip), vehicle: gum acacia): 0 of 6

Structure (SMILES): O=c1ccc2c(Cl)cc(CN(CCO)CCO)cc2[nH]1
- survivor count (dose: 300.0 mg/kg/injection, schedule: Q04DX003 (ip), vehicle: saline): 0 of 6

Structure (SMILES): CC[N+](CC)(CC)CCC[n+]1ccc(/C=N\O)cc1
- survivor count (dose: 200.0 mg/kg/injection, schedule: Q01DX009 (ip), vehicle: saline): 0 of 6
- survivor count [1]: 5 of 6
- survivor count [2]: 1 of 6

Structure (SMILES): COc1cc([N+](=O)[O-])c2nc(/C=N/NC(N)=S)ccc2c1[N+](=O)[O-]
- survivor count (dose: 100.0 mg/kg/injection, schedule: Q01DX001 (ip), vehicle: saline): 6 of 6
- survivor count (dose: 400.0 mg/kg/injection, schedule: Q01DX001 (ip), vehicle: saline): 6 of 6

Structure (SMILES): CC/C(=C/C(F)(F)C(F)(F)C(F)(F)F)[N+](=O)[O-]
- survivor count [3]: 0 of 4

Structure (SMILES): COc1ccc(Cl)cc1NC(=O)C(Br)C(Br)C(=O)O (stereo unspecified)
- survivor count (dose: 400.0 mg/kg/injection, schedule: Q01DX009 (ip), vehicle: other): 3 of 6

Structure (SMILES): COc1ccc2nc3cc(Cl)ccc3c(Nc3ccc(O)cc3)c2c1
- survivor count [4]: 5 of 6

Structure (SMILES): CCCCOP(=O)(OCCCC)Oc1cccc([N+](=O)[O-])c1
- T/C (dose: 25.0 mg/kg/injection, schedule: Q04DX002 (ip), vehicle: carboxymethylcellulose (CMC)): 93, 100, 103, 107 % of control
- survivor count (dose: 50.0 mg/kg/injection, schedule: Q04DX002 (ip), vehicle: carboxymethylcellulose (CMC)): 4 of 6 and 3 of 3
- survivor count [5]: 3 of 6
- T/C [6]: 100 % of control
- survivor count [6]: 0 of 3, 1 of 6, 2 of 6
- survivor count (dose: 200.0 mg/kg/injection, schedule: Q04DX002 (ip), vehicle: carboxymethylcellulose (CMC)): 0 of 3 and 0 of 6
- survivor count (dose: 400.0 mg/kg/injection, schedule: Q04DX002 (ip), vehicle: carboxymethylcellulose (CMC)): 0 of 3 and 1 of 6

Structure (SMILES): COc1ccc(-c2nnc(Cl)o2)cc1
- survivor count [1]: 0 of 6
- survivor count [2]: 0 of 6

Structure (SMILES): CC1(C)C(O)(C#N)C(C)(C)C1(O)C#N (stereo unspecified)
- survivor count [7]: 0 of 6
- survivor count [8]: 0 of 6
- survivor count [9]: 0 of 6

Structure (SMILES): CCC[P+](c1ccccc1)(c1ccccc1)c1ccccc1
- T/C [10]: 128 % of control (2×)
- survivor count (dose: 50.0 mg/kg/injection, schedule: Q04DX003 (ip), vehicle: saline): 0 of 6
- survivor count [5]: 0 of 6 and 2 of 6
- survivor count (dose: 200.0 mg/kg/injection, schedule: Q01DX001 (ip), vehicle: carboxymethylcellulose (CMC)): 0 of 6
- survivor count [3]: 0 of 6

Structure (SMILES): Clc1ccc(C2=NCCN2)cc1
- survivor count (dose: 75.0 mg/kg/injection, schedule: Q01DX001 (ip), vehicle: other): 3 of 6
- survivor count (dose: 150.0 mg/kg/injection, schedule: Q01DX001 (ip), vehicle: other): 0 of 6
- survivor count (dose: 300.0 mg/kg/injection, schedule: Q01DX001 (ip), vehicle: other): 0 of 6

Structure (SMILES): CCOc1ccc(Nc2cc([N+](=O)[O-])ccc2C(=O)O)cc1
- survivor count [7]: 6 of 6
- survivor count [9]: 2 of 6

Structure (SMILES): S=C(S)N1CCC(CC2CCN(C(=S)S)CC2)CC1
- survivor count [4]: 2 of 6

Structure (SMILES): [Cu+2].[NH-]CC(=O)O.[NH-]CC(=O)O
- survivor count [7]: 0 of 6
- survivor count [8]: 0 of 6
- survivor count [9]: 0 of 6

Structure (SMILES): Cc1nc2c([N+](=O)[O-])cccn2n1
- survivor count (dose: 200.0 mg/kg/injection, schedule: Q01DX001 (ip), vehicle: acetone): 3 of 6
- survivor count (dose: 400.0 mg/kg/injection, schedule: Q01DX001 (ip), vehicle: acetone): 0 of 6

Structure (SMILES): COc1ccc(-n2cc3c(=O)nccc-3c3ccccc32)cc1OC
- survivor count (dose: 300.0 mg/kg/injection, schedule: Q01DX001 (ip), vehicle: saline): 0 of 6

Structure (SMILES): C/C=C/C1OCCO1
- survivor count (dose: 200.0 mg/kg/injection, schedule: Q01DX009 (ip), vehicle: acetone): 1 of 6
- survivor count (dose: 400.0 mg/kg/injection, schedule: Q01DX009 (ip), vehicle: acetone): 0 of 6

Structure (SMILES): CC([NH-])=O.CC([NH-])=O.[Pt+2]
- survivor count (dose: 300.0 mg/kg/injection, schedule: Q01DX009 (ip), vehicle: water): 0 of 6
- survivor count (dose: 400.0 mg/kg/injection, schedule: Q04DX003 (ip), vehicle: water): 2 of 6

Structure (SMILES): COC1C(O)C(C)OC(OC2C(Oc3cccc4c(O)c5c(=O)oc6ccc(C)c7c(=O)oc(c34)c5c67)OC(C)C(O)C2O)C1O (stereo unspecified)
- T/C (dose: 10.0 mg/kg/injection, schedule: Q01DX009 (ip), vehicle: saline with Tween-80): 145 % of control
- T/C [10]: 134 % of control
- T/C (dose: 25.0 mg/kg/injection, schedule: Q01DX009 (ip), vehicle: saline with Tween-80): 139 % of control
- T/C (dose: 40.0 mg/kg/injection, schedule: Q01DX009 (ip), vehicle: saline with Tween-80): 136 % of control
- T/C (dose: 50.0 mg/kg/injection, schedule: Q01DX009 (ip), vehicle: saline with Tween-80): 128 % of control
- T/C (dose: 80.0 mg/kg/injection, schedule: Q01DX009 (ip), vehicle: saline with Tween-80): 133 % of control
- survivor count (dose: 100.0 mg/kg/injection, schedule: Q01DX009 (ip), vehicle: carboxymethylcellulose (CMC)): 2 of 6
- survivor count (dose: 200.0 mg/kg/injection, schedule: Q01DX009 (ip), vehicle: carboxymethylcellulose (CMC)): 0 of 6

Structure (SMILES): O=C(CCl)N1CCN(C(=O)CCl)CC1
- survivor count (dose: 40.0 mg/kg/injection, schedule: Q01DX009 (ip), vehicle: Klucel (hydroxypropylcellulose) (HPC)): 4 of 6
- survivor count (dose: 80.0 mg/kg/injection, schedule: Q04DX003 (ip), vehicle: Klucel (hydroxypropylcellulose) (HPC)): 0 of 6
- survivor count (dose: 100.0 mg/kg/injection, schedule: Q04DX003 (ip), vehicle: Klucel (hydroxypropylcellulose) (HPC)): 0 of 6
- survivor count [11]: 0 of 6
- survivor count [12]: 0 of 6

Structure (SMILES): CSC(=S)N(C)C
- survivor count [13]: 0 of 6
- survivor count (dose: 400.0 mg/kg/injection, schedule: Q01DX009 (ip), vehicle: Klucel (hydroxypropylcellulose) (HPC)): 0 of 6
- survivor count [12]: 2 of 6

Structure (SMILES): O=c1ccc(=O)n(-c2ccccc2)[nH]1
- T/C [12]: 128 % of control

Structure (SMILES): C=CCC1(CCC)C(=O)NC(=O)NC1=O
- survivor count [11]: 4 of 4
- survivor count [12]: 0 of 6

Structure (SMILES): Cc1nc(-c2ccccc2)c(-c2ccccc2)[nH]1
- T/C (dose: 100.0 mg/kg/injection, schedule: Q01DX009 (ip), vehicle: Klucel (hydroxypropylcellulose) (HPC)): 130 % of control [5 of 6 alive]
- survivor count [13]: 0 of 6
- survivor count [12]: 2 of 6

Structure (SMILES): CN(C)C(=S)[S][Sb]([c]1ccccc1)[c]1ccccc1
- survivor count (dose: 200.0 mg/kg/injection, schedule: Q01DX001 (ip), vehicle: other): 1 of 4
- survivor count (dose: 400.0 mg/kg/injection, schedule: Q01DX001 (ip), vehicle: other): 0 of 4

Structure (SMILES): CC1(C)CC(N=Cc2ccccc2O)CC(C)(C)N1O.CC1(C)CC(N=Cc2ccccc2O)CC(C)(C)N1O.[Cu]
- survivor count [7]: 2 of 4
- survivor count [8]: 0 of 4
- survivor count [9]: 0 of 4

Structure (SMILES): CCCCC(CCC)(CCC)CCN
- survivor count (dose: 12.5 mg/kg/injection, schedule: Q01DX001 (ip), vehicle: carboxymethylcellulose (CMC)): 2 of 4
- survivor count (dose: 20.0 mg/kg/injection, schedule: Q01DX015 (ip), vehicle: carboxymethylcellulose (CMC)): 3 of 6
- survivor count (dose: 25.0 mg/kg/injection, schedule: Q01DX001 (ip), vehicle: carboxymethylcellulose (CMC)): 2 of 4
- survivor count (dose: 50.0 mg/kg/injection, schedule: Q01DX001 (ip), vehicle: carboxymethylcellulose (CMC)): 0 of 4
- survivor count [5]: 0 of 4
